According to PubChem BioAssay AID1259415 (National Center for Advancing Translational Sciences (NCATS), 2018):
The whole screen tested about 410,000 compounds, of which about 18,000 (4.4%) were called active. Inconclusive results, whose numbers are uncertain, are shown with a selection of clear calls. Cut-off read from the data, not from the text of the source: active = activity change below about -60%; inconclusive = no clear call, values can overlap the other calls; inactive = above about -39%.

Experiment: qHTS Assay for inhibitors of the human cytomegalovirus (HCMV)
Conditions: HFF cells, HCMV-luciferase reporter, 72 h; at 57.5 µM; stronger effect = lower value
In short: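 Compounds were evaluated in HFFs infected with an HCMV luciferase reporter virus (MOI 1 PFU/cell). Luciferase in lysates collected 72 h post infection served as the replication measure.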
% is set by controls: 0 for no effect and ±100 for the full control effect.

Compound	activity change, negative = inhibition
CCc1nnc(NC(=O)CSc2nccn2-c2cccc(C)c2C)s1	inconclusive: -50.7%
CCOC(=O)Cc1csc(/N=C/c2c(O)n(-c3ccc(C)c(C)c3)c(=O)c3ccccc23)n1	inconclusive: -52.4%
CCOC(=O)N/N=C\c1ccc(OC/C=C/c2ccccc2)c(OC)c1	inconclusive: -47.4%
CC(C)(C)OC(=O)N[C@@H](CC(=O)OCc1ccccc1)C(=O)O	inconclusive: -52.4%
O=C(NCCc1ccc(Cl)cc1)c1ccc2c(c1)N(Cc1ccccc1F)C(=O)c1ccccc1S2(=O)=O	inconclusive: -56.6%
Nc1ccc2ccc(N)cc2c1	active: -65.3%
CCOC(=O)/C(=C\C=C\N1CCOCC1)C(C)=O	inconclusive: -40.5%
CC(C)(C)NC(=O)Cn1c(=O)c(=O)n(Cc2ccccc2)c2ccc(Cl)cc21	inconclusive: -41.7%
CC(=O)N1c2ccc(S(=O)(=O)N3CCCCC3)cc2CC1C(=O)Nc1ccc(F)cc1C (stereo not drawn)	active: -79.3%
N#Cc1ccccc1S(=O)(=O)N1CCN(C(=O)CN(Cc2ccco2)Cc2cccs2)CC1	inactive: -6.38%
NC(=S)Nc1cccc2cccnc12	active: -78.6%
O=C(CNC(=O)N1CC(=O)Nc2ccccc21)Nc1cccc(F)c1	inconclusive: 0%
Cc1cccc(C(=O)OCC(=O)N(CC(C)C)c2c(N)n(Cc3ccccc3)c(=O)[nH]c2=O)c1C	inconclusive: -44.8%
FC(F)(F)c1cnc(Sc2nc3nccc(-c4ccc(Cl)cc4)n3n2)c(Cl)c1	inconclusive: -46.2%
O=C(NCc1ccco1)c1ccc(C(=O)NCc2ccco2)cc1	active: -68.7%
C[C@H]1CNC(=O)c2c(C(=O)NC3CCN(C(=O)OC(C)(C)C)CC3)ncn21	inactive: -4.4%
COc1cc(NC(=S)NC(C)(C)C)c(OC)cc1Cl	inconclusive: -51.6%
CCOC(=O)c1cnc2c(C)cc(Cl)cc2c1NCCc1ccc(OC)c(OC)c1	inactive: -5.49%
CC(C)S(=O)(=O)N1CCN(c2ccnc3cc(Cl)ccc23)CC1	inconclusive: -54.1%
O=C(CN(Cc1ccccc1)S(=O)(=O)c1ccc(F)cc1)NCc1ccccn1	inactive: -31.6%
Cc1cc(C)n(CC(O)COc2ccccc2C)n1 (stereo not drawn)	inconclusive: -42.3%
O=C(NCCCCc1ccccc1)Nc1cccc(F)c1	inconclusive: -50.4%

Compound	activity change, negative = inhibition
CC(C)(CN1CCN(C(c2ccccc2)c2ccccc2)CC1)NS(=O)(=O)c1ccccc1	inconclusive: -47.8%
O=C1c2ccccc2NC(c2ccc(-c3ccc(Br)cc3)o2)N1O (stereo not drawn)	active: -72.4%
O=C(Nc1nnc(S(=O)(=O)N2CCCC2)s1)c1ccccc1F	inconclusive: -46.6%
CCN1CCN(CCCOc2ccccc2-c2ccccc2)CC1	inconclusive: -48.9%
CCN(C(=O)c1nn(-c2ccc(C)cc2)c(=O)c2c1c1ccccc1n2C)c1ccc(F)cc1	inactive: -5.23%
CN(CC(=O)Nc1cccc(F)c1)C(=O)c1ccccc1Cc1ccccc1	inconclusive: -45.7%
CCc1ccccc1OCC(=O)Nc1cc(S(=O)(=O)N2CCOCC2)ccc1N1CCCCC1	inactive: -27.8%
C/C(=N\NC(=S)Nc1ccccc1C)c1cc2ccccc2o1	inconclusive: -45%
COc1ccc(CCNC(=O)CC(c2ccccc2)c2cccc(C)c2O)cc1OC (stereo not drawn)	inconclusive: -44.9%
O=C(Nc1nnc(-c2ccco2)o1)C1CC1	inconclusive: -53.7%
O=C(OCC(=O)N1CCOCC1)c1ccc(Cl)cc1[N+](=O)[O-]	inconclusive: -56.3%
CC(C)(C)NC(=O)C(c1ccncc1)N(C(=O)CNC(=O)c1ccco1)c1ccc2c(c1)OCO2 (stereo not drawn)	inconclusive: -41.9%
COc1ccc(S(=O)(=O)Nc2c(NC3CCCCC3)c3ccccc3oc2=O)cc1OC	inconclusive: -42.1%
O=C(Nc1ccc(Oc2cccnc2)cc1)C1CCN(Cc2ccccc2)CC1	inactive: -5.23%
O=C(NCCCN1CCCC1)c1ccc2c(Cl)c3c(nc2c1)CCCC3	active: -73.3%
C=CCn1c(-c2cccc(OCC)c2)n[nH]c1=S	inconclusive: -53.3%
C#CCN(C(=O)c1cc(COc2ccc(C)c(C)c2)on1)C1CCCCC1	inconclusive: -54.9%
Cc1cc(OCc2cc(C(=O)N3CCN(C)C(=O)[C@@H]3C)no2)cc(C)c1Cl	inconclusive: -42.3%
COc1cccc(CNS(=O)(=O)c2ccc(N3CCCCS3(=O)=O)cc2)c1	inconclusive: -44.5%
CCOC(=O)C1=C(CN2CCCCC2)NC(=O)NC1c1ccc(C)cc1 (stereo not drawn)	inactive: -15.4%
CCn1c(=S)sc2c(=O)n(-c3ccccc3)c(=S)[nH]c21	active: -94.1%
Cc1ccc2nc(N3CCN(C(=O)CCC(=O)O)CC3)nc(-c3ccccc3)c2c1	inconclusive: -41%

Compound	activity change, negative = inhibition
CCCCn1c(N)c(NCC)c(=O)[nH]c1=O	inactive: 2.79%
CC(=O)Nc1ccc(S(=O)(=O)N2CCN(c3nnnn3-c3ccccc3)CC2)cc1	inconclusive: -55.5%
COc1ccccc1NC(=S)Nc1cccc(F)c1	inconclusive: -56.8%
Cc1cc(C)c(C)c(S(=O)(=O)N(C)C2CCN(C)CC2)c1C	inactive: 50.6%
CC(=O)c1ccc(N2CCN(C(=O)c3ccc4c(=O)n(-c5ccccc5)c(=O)[nH]c4c3)CC2)cc1	inconclusive: -49.3%
COc1ccc(Cc2nc3ccc(C(=O)N(C)CCCN4CCOCC4)cc3o2)cc1	inactive: -38.9%
Cc1oc(-c2ccc(Cl)cc2)nc1CN1CCCC(C(=O)NCCCN2CCOCC2)C1 (stereo not drawn)	inconclusive: -51.9%
Cc1noc(C)c1COc1ccc(C(=O)Nc2ncccc2O)cc1	inconclusive: -42.9%
COc1cc(-c2nnc(-c3cccs3)o2)cc(OC)c1OC	inactive: 172%
NC(=O)c1cc(C(=O)c2ccc(Cl)cc2Cl)c[nH]1	inconclusive: -54.4%
Fc1ccc(C2=NNC(=NCc3ccccc3)SC2)cc1F	inconclusive: -47.7%
COc1cc([C@@H]2c3cc4c(cc3[C@@H](O)[C@H]3COC(=O)[C@H]23)OCO4)cc(OC)c1O[Si](C)(C)C(C)(C)C	inconclusive: -55.3%
COc1ccccc1N1CCN(CC(O)COCCOc2ccc(Br)cc2)CC1 (stereo not drawn)	inconclusive: -43.1%
CN(CCOc1ccc(Cl)cc1)C(=O)C1CCN(C(=O)c2ccc(F)cc2)CC1	inconclusive: -54.5%
CCC(CC)C(=O)NCc1nc2cccnc2n1Cc1ccc(F)cc1	inconclusive: -49.7%
COc1cccc(CNC(=O)C2CCN(C(=O)c3sccc3-n3cccc3)CC2)c1	inactive: -20.9%
Cc1ccc(CSCCC(=O)N2CCN(c3cc(C)ccc3C)CC2)cc1	inactive: -9.64%
Cn1c(/C(C#N)=C/c2ccncc2)nc2ccccc21	inactive: 11.9%
O=C(CNC(=O)c1cccs1)N/N=C/c1cccc(Br)c1	inconclusive: -45.7%
CN(C)[C@H]1CCN([C@H]2CS(=O)(=O)N[C@@H]2COCc2ccccc2)C1	inactive: 25.4%
O=C(Nc1ccc2oc(-c3ccccc3)nc2c1)c1ccc2c(c1)OCCO2	inconclusive: -48.3%
CC(=O)OCCNC(=O)c1cc2ccccc2oc1=O	inactive: 3.79%

Compounds listed so far that contain an aryl methoxy group:
Compound	activity change, negative = inhibition
CCOC(=O)N/N=C\c1ccc(OC/C=C/c2ccccc2)c(OC)c1	inconclusive: -47.4%
COc1cc(NC(=S)NC(C)(C)C)c(OC)cc1Cl	inconclusive: -51.6%
CCOC(=O)c1cnc2c(C)cc(Cl)cc2c1NCCc1ccc(OC)c(OC)c1	inactive: -5.49%
COc1ccc(CCNC(=O)CC(c2ccccc2)c2cccc(C)c2O)cc1OC (stereo not drawn)	inconclusive: -44.9%
COc1ccc(S(=O)(=O)Nc2c(NC3CCCCC3)c3ccccc3oc2=O)cc1OC	inconclusive: -42.1%
COc1cccc(CNS(=O)(=O)c2ccc(N3CCCCS3(=O)=O)cc2)c1	inconclusive: -44.5%
COc1ccccc1NC(=S)Nc1cccc(F)c1	inconclusive: -56.8%
COc1ccc(Cc2nc3ccc(C(=O)N(C)CCCN4CCOCC4)cc3o2)cc1	inactive: -38.9%
COc1cc(-c2nnc(-c3cccs3)o2)cc(OC)c1OC	inactive: 172%
COc1cc([C@@H]2c3cc4c(cc3[C@@H](O)[C@H]3COC(=O)[C@H]23)OCO4)cc(OC)c1O[Si](C)(C)C(C)(C)C	inconclusive: -55.3%
COc1ccccc1N1CCN(CC(O)COCCOc2ccc(Br)cc2)CC1 (stereo not drawn)	inconclusive: -43.1%
COc1cccc(CNC(=O)C2CCN(C(=O)c3sccc3-n3cccc3)CC2)c1	inactive: -20.9%

Later entries

Compound	activity change, negative = inhibition
Cc1cc2oc(C(=O)Nc3sc4c(c3C(=O)NCc3ccccc3)CCCC4)cc(=O)c2cc1C	inactive: 5.34%
CCC(=O)c1coc2ccc(O)cc12	inconclusive: -42%
N=c1c2cn[nH]c2nc(SCC(=O)c2ccc(Br)cc2)n1-c1ccc(Br)cc1	inactive: 317%
CCCCn1nc(C(=O)NCC(c2cccs2)N2CCOCC2)c2ccccc2c1=O (stereo not drawn)	inconclusive: -57.6%
CCC1Sc2ccc(S(=O)(=O)CCC(=O)NCc3ccc(C)o3)cc2NC1=O (stereo not drawn)	inconclusive: -46%
Cc1ccc(CNC(=O)CN2C(=O)CSc3ccc(S(=O)(=O)N4CCCC4)cc32)cc1	inactive: -30.8%
S=C(c1ccc(-c2cc(Cl)ccc2Cl)o1)N1CCCCC1	inconclusive: -47.2%
COc1ccc(C(=O)Nc2ccc(Br)cn2)cc1S(=O)(=O)N1CCOCC1	inconclusive: -47%
CC(=O)N1CCC(N(CCN2CCOCC2)C(=S)Nc2cccc(C)c2)CC1	inconclusive: -54.6%
Cc1ccc(NC(=O)CCCN2C(=O)C(c3ccccc3)Oc3cccnc32)c(C)c1 (stereo not drawn)	inconclusive: -47.5%
O=C(CCSc1ccc(Cl)cc1)N1CCOCC1	inactive: 40.7%
CC(=O)Nc1ccc(NC(=O)c2nc(SCc3ccccc3C)ncc2Cl)cc1	inactive: -14.8%
Cc1nnc(SCC(=O)Nc2nccs2)o1	active: -61.3%
CCc1nn(-c2ccccc2)c(=S)c2ccccc12	active: -63.1%
CCOC(=O)CSc1nc2c(sc(=S)n2Cc2ccco2)c(=O)n1-c1ccccc1	inactive: -11.4%
O=C(Cn1nnc2ccccc21)N1CCCCC1	inactive: -1.52%
Cc1nc2c(cnn2-c2ccccc2)c(=O)[nH]1	inconclusive: -47.1%
COc1ccccc1N1C(=O)C2C(C(=O)c3ccccc3)=NN(c3ccc(C)cc3)C2C1=O (stereo not drawn)	inconclusive: -52.1%
COC(=O)c1cc(OC)c(OC)cc1NC(=S)N1CCN(c2ccccc2)CC1	inconclusive: -43.9%
CCOc1ccc(Nc2cc(C)nc3ccc(C)cc23)cc1	active: -73.8%
COc1cc(NC(=O)COC(=O)CNS(=O)(=O)c2ccc(F)c(F)c2F)cc(OC)c1	inconclusive: -51.3%
Cc1ccc(NC(=O)Cn2cc(C(=O)c3ccco3)c3ccccc32)c(C)c1	active: -73.5%

Reformatted as a markdown table: 2 of the compounds above.

| Compound | activity change, negative = inhibition |
| --- | --- |
| COc1ccccc1N1C(=O)C2C(C(=O)c3ccccc3)=NN(c3ccc(C)cc3)C2C1=O (stereo not drawn) | inconclusive: -52.1% |
| COC(=O)c1cc(OC)c(OC)cc1NC(=S)N1CCN(c2ccccc2)CC1 | inconclusive: -43.9% |
